The exact form of at least one protein or probe is not confirmed. For some assays here: A negative result means that nothing was seen under these conditions. For some assays here: Tags and fusion partners may be left off the protein sequences shown.

Experimental findings from publication PMC7827474, “DnaJ Proteins Regulate WUS Expression in Shoot Apical Meristem of Arabidopsis” are described below.

Data set [1] concerns the target T1, MBP:WUS (Arabidopsis thaliana) (UniProt Q9SB92).
T1 sequence (looked up, limits assumed): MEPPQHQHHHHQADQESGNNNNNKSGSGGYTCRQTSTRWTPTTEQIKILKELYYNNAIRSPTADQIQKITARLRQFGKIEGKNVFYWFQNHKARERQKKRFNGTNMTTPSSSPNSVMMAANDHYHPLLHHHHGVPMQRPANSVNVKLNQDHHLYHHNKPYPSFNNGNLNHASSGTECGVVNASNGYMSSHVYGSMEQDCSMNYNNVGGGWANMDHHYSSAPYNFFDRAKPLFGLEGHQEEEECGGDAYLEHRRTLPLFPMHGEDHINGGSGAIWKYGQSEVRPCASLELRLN
As to the kind of experiment: EMSA. Conditions: EMSA: 10 mM HEPES pH 7.8, 20 mM KCl, 1 mM MgCl2, 7.5% glycerol, 0.5% Triton-100, 300 ng carrier DNA, 0.02% BSA, 10 uL, 22 C, 30 min; recombinant protein; protein details: MBP. In general terms: Mobility shift assays separate free from complexed probe on a gel.

The test system of data set [2] is MBP:WUS + MBP:SDJ1. Put plainly: EMSA. Conditions: more efficient than WUS alone; EMSA: 10 mM HEPES pH 7.8, 20 mM KCl, 1 mM MgCl2, 7.5% glycerol, 0.5% Triton-100, 300 ng carrier DNA, 0.02% BSA, 10 uL, 22 C, 30 min; recombinant protein; protein details: MBP,MBP.

As to “CTAGAATGAACCCCAAAAAAAGTGAAAACCGTTTGATCATAA (double strand) [WUS mutant probe (pWUStu, TAAT to CCCC)]”, the binding result in data set [1] is “no binding”.
As for “CTAGAATGAATAATAAAAAAAGTGAAAACCGTTTGATCATAA (double strand) [WUS promoter probe (pWUS)]”, the binding result in data set [2] is “binds”.
